Inconclusive means that the source gave no clear call. Such entries were picked first, then a sample of the others. For some assays here: Potencies beside an inconclusive call are fits to weak or partial responses and may not hold up. Activity calls are given as the source filed them. Calls come from the whole dose curve; as a rule, active = well fitted curve in the direction sought with a large enough effect; inconclusive = small, poorly fitted or top-dose-only effect, or another doubt; inactive = no such curve, though single readings can be large; an effect the other way counts as inactive or inconclusive.
How the values were obtained:
[1] = Quantitative High-Throughput drug screen in 47 multiple myeloma cell lines against the NCATS MIPE library collection: KMS20_JCRB cell viability assay (AID 1918973); details: CellTiter-Glo ATP, 48 h; viability (% of DMSO): at 45.8 µM (top of the series); note: nearly all actives have a fitted effect of over 45% in size; note: potency is the fitted concentration of half-maximal effect
Outline: (§1)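 Primary qHTS used for cherry-picking: cells at 500/well, library compounds for 48 h (37C, 5% CO2), luminescent ATP assay.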

[2] = Quantitative High-Throughput drug screen in 47 multiple myeloma cell lines against the NCATS MIPE library collection: KMS21BM_JCRB cell viability assay (AID 1918974); details: ATP luminescence, 48 h; viability: at 45.8 µM (top of the series) unless noted; note: potency is the fitted concentration of half-maximal effect
Outline: as §1

[3] = Quantitative High-Throughput drug screen in 47 multiple myeloma cell lines against the NCATS MIPE library collection: MMM1_PLB cell viability assay (AID 1918976); note: potency is the fitted concentration of half-maximal effect; nearly all actives have a fitted effect of over 35% in size
Outline: (§2)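 Cells were exposed to library compounds for 48 hours, after which ATP was measured by CellTiter-Glo. Signal was taken as median relative luminescence units.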

[4] = Quantitative High-Throughput drug screen in 47 multiple myeloma cell lines against the NCATS MIPE library collection: MOLP8_DSMZ cell viability assay (AID 1918977); details: MOLP8 myeloma viability, CellTiter-Glo ATP luminescence, 48 h; viability (% of control): at 45.8 µM (top of the series); note: nearly all actives have a fitted effect of over 45% in size; note: potency is the fitted concentration of half-maximal effect
Outline: as §2

[5] = Quantitative High-Throughput drug screen in 47 multiple myeloma cell lines against the NCATS MIPE library collection: OCIMY1_PLB cell viability assay (AID 1918979); details: OCI-MY1 myeloma viability, CellTiter-Glo ATP, 48 h; viability: at 45.8 µM (top of the series) unless noted; note: nearly all actives have a fitted effect of over 35% in size; note: potency is the fitted concentration of half-maximal effect
Outline: as §2

[6] = Quantitative High-Throughput drug screen in 47 multiple myeloma cell lines against the NCATS MIPE library collection: MM1S_ATCC cell viability assay (AID 1918980); note: nearly all actives have a fitted effect of over 45% in size; note: potency is the fitted concentration of half-maximal effect
Outline: as §2

[7] = Quantitative High-Throughput drug screen in 47 multiple myeloma cell lines against the NCATS MIPE library collection: MM1R_ATCC cell viability assay (AID 1918981); note: nearly all actives have a fitted effect of over 35% in size; note: potency is the fitted concentration of half-maximal effect
Outline: as §2

[8] = Quantitative High-Throughput drug screen in 47 multiple myeloma cell lines against the NCATS MIPE library collection: LP1_DSMZ cell viability assay (AID 1918982); details: LP1 myeloma viability, CellTiter-Glo ATP luminescence, 48 h; viability (% of control): at 45.8 µM (top of the series); note: nearly all actives have a fitted effect of over 35% in size; note: potency is the fitted concentration of half-maximal effect
Outline: as §2

[9] = Quantitative High-Throughput drug screen in 47 multiple myeloma cell lines against the NCATS MIPE library collection: L363_DSMZ cell viability assay (AID 1918984); details: L363 myeloma viability, CellTiter-Glo ATP luminescence, 48 h; viability (% of control): at 45.8 µM (top of the series); note: nearly all actives have a fitted effect of over 40% in size; note: potency is the fitted concentration of half-maximal effect
Outline: as §2

[10] = Quantitative High-Throughput drug screen in 47 multiple myeloma cell lines against the NCATS MIPE library collection: KMS34_JCRB cell viability assay (AID 1918985); details: KMS34 myeloma viability, CellTiter-Glo ATP luminescence, 48 h; viability, percent of control: at 45.8 µM (top of the series); note: nearly all actives have a fitted effect of over 40% in size; note: potency is the fitted concentration of half-maximal effect
Outline: as §2

[11] = Quantitative High-Throughput drug screen in 47 multiple myeloma cell lines against the NCATS MIPE library collection: OCIMY7_PLB cell viability assay (AID 1918987); details: OCI-MY7 myeloma viability, CellTiter-Glo ATP, 48 h; viability (% of DMSO): at 45.8 µM (top of the series); note: nearly all actives have a fitted effect of over 65% in size; note: potency is the fitted concentration of half-maximal effect
Outline: as §2

[12] = Quantitative High-Throughput drug screen in 47 multiple myeloma cell lines against the NCATS MIPE library collection: OPM1_PLB cell viability assay (AID 1918989); note: nearly all actives have a fitted effect of over 40% in size; note: potency is the fitted concentration of half-maximal effect
Outline: as §2

[13] = Quantitative High-Throughput drug screen in 47 multiple myeloma cell lines against the NCATS MIPE library collection: SKMM1_PLB cell viability assay (AID 1919863); details: SKMM1 myeloma viability, CellTiter-Glo ATP, 48 h; viability: hits give low values; note: nearly all actives have a fitted effect of over 35% in size; note: potency is the fitted concentration of half-maximal effect
Outline: as §2

[14] = Quantitative High-Throughput drug screen in 47 multiple myeloma cell lines against the NCATS MIPE library collection: U266_ATCC cell viability assay (AID 1919864); details: U266 myeloma viability, CellTiter-Glo ATP luminescence, 48 h; viability (% of DMSO control): at 45.8 µM (top of the series); note: nearly all actives have a fitted effect of over 35% in size; note: potency is the fitted concentration of half-maximal effect
Outline: as §2

[15] = Quantitative High-Throughput drug screen in 47 multiple myeloma cell lines against the NCATS MIPE library collection: XG6_PLB cell viability assay (AID 1919865); details: XG6 myeloma viability, CellTiter-Glo ATP luminescence, 48 h; viability (% of control): at 45.8 µM (top of the series); note: nearly all actives have a fitted effect of over 40% in size; note: potency is the fitted concentration of half-maximal effect
Outline: as §2

[16] = Quantitative High-Throughput drug screen in 47 multiple myeloma cell lines against the NCATS MIPE library collection: XG1_PLB cell viability assay (AID 1919866); details: CellTiter-Glo ATP, 48 h; viability: at 45.8 µM (top of the series); note: nearly all actives have a fitted effect of over 35% in size; note: potency is the fitted concentration of half-maximal effect
Outline: as §2

[17] = Quantitative High-Throughput drug screen in 47 multiple myeloma cell lines against the NCATS MIPE library collection: NCIH929_DSMZ cell viability assay (AID 1918978); note: nearly all actives have a fitted effect of over 35% in size
Outline: as §2

[18] = Quantitative High-Throughput drug screen in 47 multiple myeloma cell lines against the NCATS MIPE library collection: OCIMY5_PLB cell viability assay (AID 1918988); details: OCI-MY5 myeloma viability, ATP luminescence, 48 h; viability, % of control: at 45.8 µM (top of the series); note: nearly all actives have a fitted effect of over 65% in size; note: potency is the fitted concentration of half-maximal effect;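 for viability, % of control: 100% = DMSO-treated wells and 0% = wells with media alone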
Outline: as §2

[19] = Quantitative High-Throughput drug screen in 47 multiple myeloma cell lines against the NCATS MIPE library collection: KMS26_JCRB cell viability assay (AID 1918975); details: KMS26 myeloma cells viability, CellTiter-Glo ATP, 48 h; viability (% of DMSO): at 45.8 µM (top of the series); note: potency is the fitted concentration of half-maximal effect; nearly all actives have a fitted effect of over 45% in size
Outline: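 CellTiter-Glo luminescence (ATP) after 48 h compound exposure, 37C/5% CO2; 500 cells/well; MIPE 4.0 approved/investigational drugs pinned in; DMSO = 100%, media only = 0% viability.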

Question: For `O=c1[nH]c(-c2ccc(C(F)(F)F)cc2)nc2c1CSCC2`, which Potency [1] is on record?
Answer: inactive

Question: And the Potency [2]?
Answer: inconclusive: 9.35 µM [rising, partial curve, poor fit]

Question: What about the Potency [3] of the same molecule?
Answer: active: 7.43 µM

Question: What about the Potency [4] of the same molecule?
Answer: inactive

Question: And the Potency [5]?
Answer: inconclusive: 33.2 µM [cytotoxic, single point]

Question: What about the Potency [6] of the same molecule?
Answer: active: 18.7 µM

Question: And the Potency [7]?
Answer: inconclusive: 29.6 µM [cytotoxic, single point]

Question: What about the Potency [8] of the same molecule?
Answer: inconclusive: 20.9 µM [cytotoxic, single point]

Question: What about the Potency [9] of the same molecule?
Answer: inactive

Question: What about the Potency [10] of the same molecule?
Answer: inconclusive: 18.7 µM [cytotoxic, partial curve, poor fit]

Question: And the Potency [11]?
Answer: inconclusive: 4.69 µM [cytotoxic, partial curve, poor fit]

Question: And the Potency [12]?
Answer: inconclusive: 11.8 µM [cytotoxic, partial curve, poor fit]

Question: And the Potency [13]?
Answer: inconclusive: 14.8 µM [cytotoxic, partial curve, poor fit]

Question: And the Potency [14]?
Answer: active: 18.7 µM

Question: And the Potency [15]?
Answer: inconclusive: 16.6 µM [cytotoxic, partial curve, poor fit]

Question: What about the Potency [16] of the same molecule?
Answer: inactive

Question: For `Nc1ccc(S(N)(=O)=O)cc1`, which Potency [1] is on record?
Answer: inconclusive: 0.264 µM [cytotoxic, full curve, poor fit]

Question: And the Potency [2]?
Answer: inactive

Question: What about the Potency [3] of the same molecule?
Answer: inconclusive: 4.69 µM [cytotoxic, full curve, poor fit]

Question: What about the Potency [4] of the same molecule?
Answer: inactive

Question: What about the Potency [17] of the same molecule?
Answer: inactive

Question: What about the Potency [5] of the same molecule?
Answer: inactive

Question: And the Potency [6]?
Answer: inactive

Question: What about the Potency [8] of the same molecule?
Answer: inactive

Question: What about the Potency [9] of the same molecule?
Answer: inconclusive: 0.0935 µM [rising, full curve, poor fit]

Question: What about the Potency [10] of the same molecule?
Answer: inconclusive: 2.96 µM [cytotoxic, full curve, poor fit]

Question: And the Potency [11]?
Answer: inactive

Question: What about the Potency [18] of the same molecule?
Answer: inactive

Question: And the Potency [12]?
Answer: inactive

Question: And the viability [13]?
Answer: inactive: 120%

Question: What about the Potency [15] of the same molecule?
Answer: inactive

Question: What does the source list for `c1ccc([C@H]2CN3CCSC3=N2)cc1`?
Answer: Potency [1]: inconclusive: 4.69 µM [rising, partial curve, poor fit]; Potency [2]: inactive; Potency [3]: inconclusive: 0.003 µM [rising, full curve, poor fit]; Potency [4]: inconclusive: 0.59 µM [rising, partial curve, poor fit]; Potency [17]: inactive; Potency [6]: inconclusive: 0.469 µM [rising, full curve, poor fit]; Potency [7]: inactive; Potency [8]: inactive; Potency [9]: inactive; Potency [10]: inactive; Potency [11]: inconclusive: 3.72 µM [cytotoxic, full curve, poor fit]; Potency [18]: inactive; Potency [12]: inconclusive: 33.2 µM [cytotoxic, single point]; viability [13]: inactive: 159%; Potency [14]: inactive; Potency [16]: active: 16.6 µM

Question: Which Potency [1] does the source give for `CO[C@H]1/C=C\O[C@@]2(C)Oc3c(C)c(O)c4c(O)c(c(C=NN5CCN(C6CCCC6)CC5)c(O)c4c3C2=O)NC(=O)C(C)=CC=C[C@H](C)[C@H](O)[C@@H](C)[C@@H](O)[C@@H](C)[C@H](OC(C)=O)[C@H]1C` here?
Answer: inconclusive: 0.059 µM [cytotoxic, full curve]

Question: And the Potency [2]?
Answer: inconclusive: 0.264 µM [cytotoxic, full curve, poor fit]

Question: And the Potency [19]?
Answer: active: 20.9 µM

Question: What about the Potency [4] of the same molecule?
Answer: active: 8.33 µM

Question: What about the Potency [9] of the same molecule?
Answer: inconclusive: 0.235 µM [cytotoxic, full curve]

Question: What about the Potency [10] of the same molecule?
Answer: active: 2.96 µM

Question: What about the Potency [11] of the same molecule?
Answer: inconclusive: 8.33 µM [cytotoxic, partial curve]

Question: And the Potency [16]?
Answer: inconclusive: 0.187 µM [cytotoxic, full curve]

Question: For `CC(=O)O[C@H]1C(=O)[C@@]2(C)C([C@H](OC(=O)c3ccccc3)[C@]3(O)C[C@H](OC(=O)[C@H](O)[C@@H](NC(=O)c4ccccc4)c4ccccc4)C(C)=C1C3(C)C)[C@]1(OC(C)=O)CO[C@@H]1C[C@@H]2O` (stereo not given in full), which Potency [1] is on record?
Answer: inactive

Question: What about the Potency [2] of the same molecule?
Answer: inconclusive: 9.35 µM [rising, full curve, poor fit]

Question: And the Potency [3]?
Answer: active: 14.8 µM

Question: And the Potency [4]?
Answer: inactive

Question: And the Potency [17]?
Answer: inactive

Question: And the Potency [6]?
Answer: inactive

Question: What about the Potency [9] of the same molecule?
Answer: inconclusive: 10.5 µM [rising, full curve, poor fit]

Question: And the Potency [10]?
Answer: inconclusive: 0.0033 µM [cytotoxic, full curve]

Question: And the viability (% of DMSO) [11]?
Answer: inconclusive: 31% [cytotoxic]

Question: What about the Potency [18] of the same molecule?
Answer: inactive

Question: And the Potency [12]?
Answer: inconclusive: 0.0012 µM [cytotoxic, full curve]

Question: And the Potency [14]?
Answer: inactive

Question: And the Potency [15]?
Answer: inconclusive: 5.26 µM [rising, partial curve, poor fit]

Question: What about the Potency [16] of the same molecule?
Answer: inactive

Question: Which Potency [1] does the source give for `CCCCCN(CCC12CC3CC(CC(C3)C1)C2)C(=O)NCCCc1ccncc1` here?
Answer: active: 18.7 µM

Question: What about the Potency [2] of the same molecule?
Answer: inconclusive: 11.8 µM [cytotoxic, partial curve, poor fit]

Question: And the Potency [19]?
Answer: active: 20.9 µM

Question: And the Potency [4]?
Answer: active: 20.9 µM

Question: And the viability (% of control) [8]?
Answer: inconclusive: 71.2% [cytotoxic]

Question: And the Potency [9]?
Answer: inconclusive: 5.9 µM [cytotoxic, full curve, poor fit]

Question: And the Potency [10]?
Answer: inconclusive: 18.7 µM [cytotoxic, partial curve, poor fit]

Question: And the Potency [18]?
Answer: active: 14.8 µM

Question: And the Potency [12]?
Answer: inconclusive: 33.2 µM [cytotoxic, single point]

Question: What about the Potency [15] of the same molecule?
Answer: inconclusive: 20.9 µM [cytotoxic, partial curve]

Question: And the Potency [16]?
Answer: inconclusive: 20.9 µM [cytotoxic, partial curve]

Reference: PubChem BioAssay (NCATS)
